These are yes or no findings as the source states them, for the method shown. In cells and extracts the contact can be indirect. Here binding means that the protein was enriched with, or labelled near, the bait; the list need not be complete.

By UniProt entry, the sequences of proteins in these tests, tags left out.
UniProt Q8CGF6: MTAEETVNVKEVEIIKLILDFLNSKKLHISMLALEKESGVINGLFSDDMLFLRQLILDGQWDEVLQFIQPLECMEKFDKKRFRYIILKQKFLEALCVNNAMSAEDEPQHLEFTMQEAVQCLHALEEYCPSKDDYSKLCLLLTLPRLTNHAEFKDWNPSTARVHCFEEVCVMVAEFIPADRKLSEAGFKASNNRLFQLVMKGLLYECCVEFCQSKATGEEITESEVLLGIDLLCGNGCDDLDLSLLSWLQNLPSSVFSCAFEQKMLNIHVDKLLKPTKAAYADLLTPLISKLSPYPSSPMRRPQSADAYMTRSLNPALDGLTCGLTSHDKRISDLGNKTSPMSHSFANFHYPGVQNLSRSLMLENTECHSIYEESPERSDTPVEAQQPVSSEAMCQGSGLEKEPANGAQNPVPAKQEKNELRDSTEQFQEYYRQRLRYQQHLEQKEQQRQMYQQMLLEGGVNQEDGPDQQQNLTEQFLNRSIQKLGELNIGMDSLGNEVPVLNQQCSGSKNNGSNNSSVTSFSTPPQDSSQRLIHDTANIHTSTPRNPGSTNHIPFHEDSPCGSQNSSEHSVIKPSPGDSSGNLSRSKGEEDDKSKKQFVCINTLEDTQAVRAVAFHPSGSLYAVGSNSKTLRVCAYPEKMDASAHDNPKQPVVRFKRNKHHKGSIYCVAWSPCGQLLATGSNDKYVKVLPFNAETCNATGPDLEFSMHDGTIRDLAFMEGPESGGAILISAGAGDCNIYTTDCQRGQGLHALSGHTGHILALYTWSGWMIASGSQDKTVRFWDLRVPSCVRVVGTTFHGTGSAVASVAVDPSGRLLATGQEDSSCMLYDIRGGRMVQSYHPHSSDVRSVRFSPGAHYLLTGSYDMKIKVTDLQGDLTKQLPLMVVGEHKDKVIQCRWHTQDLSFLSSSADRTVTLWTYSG

This note sets out measurements from paper PMC12979858.

First the molecules themselves.
B1: SPAG6 (protein, UniProt Q9JLI7 1-507)
chain: MSQRQVLQVFEQYQKARTQFVQMVAELATRPQNIETLQNAGVMSLLRPLLLDVVPTIQQTAALALGRLANYNDDLAEAVVKGDILPQLVYSLAEQNRFYKKAAAFVLRAVGKHSPQLAQAIVDCGALDTLVICLEDFDPGVKEAAAWALGYIARHNTELSQAVVDAGAIPLLVLCIQEPEIALKRIAASALSDISKHSPELAQTVVDAGAIAHLAQMILNPDAKLKRQVLSALSQIAKHSVDLAEMVVEAEIFPVVLTCLKDKDEYVKKNACTLIREIAKHTPELSQLIVNAGGVAAVIDCIGSCKGNIRLPGIMMLGYVAAHSENLAMAVIISKGVPQLSICLSEEPEDHIKAAAAWALGQLGRHTPEHARAVAVTNTLPVLLSLYMSPESSEDLQLKSKKAIKNILQKCTYLPALEPFLYDAPPNILKHVVGQFSKVLPHDSKARRLFVTSGGLKKVQEIKAEPGSLLQEYINSINNCYPEEIVRYYSPGYSDTLLQRVDSYQPL
B2: CCDC13 (protein, UniProt D3YV10 1-709)
chain: MAADESSADTLRLQFKAMQELQHRRLQKQMEKKREKELSCQSKADNQEGFMVIPDGLSLLDTEEQNLKNIFEKRVLEDEIQHLRSELRETVDENGRLYKLLKERDFEIKHLKKKIEEDRFAFTGASGMAGDLVATKIVELSKKNRGLMAESESAKVRIKQLTNRIQELEHQLQMASAKPPSKGATDAGAKPLKTQTGDRALLETPEVKALQDRLAATNLKMSDLRNQIQSAKQELRVAQKVLANEVGEDVNIQQLLASPGTWRGRAQQILVLQSRVRDLEKQLGQRQNKPAGSSSSEVPLSSDSRKMTAQEKNLLRIRSLERDKQESWEKLASERDTLQTELEELRKKFEGMRSRNKVLSSEVKTLRSQMTTLVEKGRHDDELIDALMDQLKQLQDILSSLSVQEESRRTSQQHLDQKVNSEAQRSSSLVAQLRAMVADREAKVRQLELEIGQLSVQYLHGKGGGEGASPADARFPEDQTPITNSPASAGDHVGRLGSSRSVTSLGHTLVESALTRPSLPSPHGTSPRFSDSPEQKGWQAQAAEMKALWQAAEVERDRLNEFVTVLQKRVEESSSKLLEAERRLQEERQRAVLLEQHLEKMRLEPSRASVSQKTKNKPGPPAANTKPNSAGSAKKDSSSTQLCDMPMESQIQELNARLAIQMEENGILRDALGSALRGKEEDFRMYHQTLGQVKGVFLQALRQQKANKQ
B3: C2ORF81 (protein, UniProt Q9DAQ4-1 1-598)
chain: MSHEGSRQARDRGVTRSKAEKARPPTQPVPQVDIVPGRLNEAEWIAFMSLEEGEDVVGDILADLMTRVMECAFKVYLTQQCVPFTISQAREAMLQITEWRFLARDEGESAVAEDPTWGEDEEPLACTTDSWAQGSVPVLHTPAPVCVEEQFHNEEPGNPDQFLLGSSWDKESQKPTQPSEPSAEPKVTPRPTATLEAFEEAEPGDALEVPHGQEGSHMLAVPSKESLRSTAEGERVYSPQSSLKQPQVVRLQASEKESSFGSHLSLEDLYLCMPQPDAAGDRLSLQSKGQLHSSPIGSESHLGALTPAEPSAFQEPEVLGERPKHKTTTLRMDSSRLPRHWVRPVAEVLIPDLEVHPLEIYRGRPRRSQAGTATSACESQALSSRAPSKPHVSSPRFPLQRCATFRALGPDPSLNLAQTSPSFGSNVPFLSPGFRFLPRNPIPPDVASTPTPKLWPLAKWPSGWEREAEQLGELWAGRTRVPPQGQEPVEVTPLEEDSGWPLAAPQVLEATSQVLWKPMVISETMKLVPGVSMWNRGTQELLNPAVIRKEAEEGTPQAPEQQPIQTGVSKPQVIMKQIRNETPKAWLLPTKPVPHSGS
B4: ARMC3 (protein, UniProt A2AU72 1-881)
chain: MGKKIKKEVEPPPKDVFDPITIESKKAATVVLMLKSPEEDILAKACEAIYKFALKGEENKATLLELGAVEPLTKLLTHEDKTVRRNAMMIFGILASNSDVKKLLRELEVMNSVIAQLSPEEEVVIHEFASLCLANMSVEYTGKVQIFEHGGLEPLIRLLSSSDPDVKKNSIECIYNLVQDFQCRTTLQELNAIPPILELLRSEYPIIQLLALKTLGVITCDKEARTMLKENQGLDHLTKILETKELNDLHVEALSVIANCLEDMDTMVLMQQTGSLKKVLSFAESSTIPDIQKNAAKAIAKAAYDPENRKVFHEQEVEKCLVTLLGSDSDGTKIAASQAISALCENLSCKEFFNTQGIPQIVQLLRSDNEEVREAAALALANLTTSSPANANAAAEADAIDPLINILSSKRDGAIANAATVLTNMATQEPLRAIIQNHEIMHALLGPLHSTNTLVQSTAALTVAATACDVEARTQLRNCGGLVPLVGLLHSKNDEVRRHASWAVMVCAGDEPMAVELCRLGALNILEEINRSLSRKNKFSEAAYNKLLNNNLSLKYSQTGYLSSSNIISDGFYDYGRINPGTKLLSLKELCLQELNDQRAILLVNNKSDTSPPPSMEDKSSDVGYGRSISSSSSLRRGSKEKANAIFGSPTEEKSEPASVRNTILSRAFTKEKGVSKKKSRLQLICSSYLLWKGKGKKEEEKVKEEEEILALPKFTEGSPEKEWNPPPDPEFCVYVLEVTKSILPIVNLKEQIEVLAKYVADKMGGKIPKEKLADFSWELHISELKFQLKSNVVPIGYIKKGIFYHRALLFKALADKIGVGCSLVRGEYSRGWNEVKLVNEARKGMIGNLPPPEEYIVDLMFHPGNLLKLRSKEADLYRFL
B5: SPEF1 (endogenous) (protein, UniProt Q99JL1 1-234)
chain: MESSVDEEALHQLYLWVDNIPLSRPKRNLSRDFSDGVLVAELIKFYFPKMVEMHNYVPANSLQQKLSNWGHLNRKVLNKLNFSVPDDVMRKIAQCSPGVVELVLIPLRQRLEERQRRQKLGVGSLQELAPQDSSGYMDMGLPQKVRGEGAPALGEQLREGRPLASRPPGYNQALQGDPSFVLQIAEKEQELLASQETVQVLQMKVKRLEHLLQLKNVRIDDLSRRLQQAERKQR
B6: LRRC71 (protein, UniProt Q9D3W5 1-558)
chain: MSSEPSTTGTSPRTPRPGAQKSSGAVTKKGDRAAKDKTASTLPPVGEDEPKNPEEYQCTGVLETDFAELCTRSGYVDFPKVVTRPRVQQSSVPSASTSEKPVLDDQRPSASCSQSSLESKYVFFRPTIQVELEQEDSKAVKEIYIRGWKVEDRILGIFSKCLPSLSQLQAINLWKVGLTDKTLTTFIALLPLCSSTLRKVSLEGNPIPEQSFSKLMGLDSTIVHLSLRNNNINDHGAQLLGQALSTLQNSNRTLVSLNLAFNHIGDVGAGYIADGLRLNRSLLWLSLAHNHIQDKGALKLAEVLRPFELTHREVVERRRLLLVKGTQERSRSPSSSRYGDSKAEREKSQTLGISNVTLVDKQEKMQSLKAPKTISKKKEKTGEVVKKEEKLGSGQSPTQGTPKKEDAAKAGKGKVTIPEQKMSKGKATKMGAKEKRSILLESEQLVVEATEMVNPLLEPVEHRDGKVFLPGNKVLLHLNLLRNQITEVGLEGFLTAVQYQVQVSKPKTSPKAPLGLLWLSLAKNCFDPQCPTHVMIQELMLPRDPVKAKAREEEAAAT

The target of this assay is APEX2-WDR47 (mouse) (UniProt Q8CGF6). The assay is described as follows: proximity labelling; APEX2-WDR47 expressed in mEPCs by adenovirus; 500 uM biotin-phenol at 37 C for 30 min, 1 mM H2O2 for 1 min; lysis in RIPA buffer, biotinylated proteins on streptavidin-conjugated agarose beads, shotgun mass spectrometry; cutoff >= twofold peptide ratio against the mock-treated control.
As for B1, the binding entry is “binds”.
Turning to B2, the binding entry was “binds”.
The result for B3 reads “binds”; that for B4, “binds”; that for B5, “binds”.
With B6, the binding entry was “binds”.
